# Values of other authors as cited in patent publication US20050148495A1, “Methods and materials including for treating acne” (priority 2003, published 2005).
# At least one compound was matched to its structure with a doubt left.
# System: cultures of P. acnes
# Settings: cited from earlier work
compound,measurement,value
CCC[C@@H]1C[C@@H](C(=O)N[C@@H]([C@H]2O[C@H](SC)[C@H](O)[C@@H](O)[C@H]2O)[C@H](C)Cl)N(C)C1 [Clindamycin],minimum inhibitory concentration (MIC),400 µg/mL
